These are yes or no findings as the source states them, for the method shown. In cells and extracts the contact can be indirect. Binding calls can cover weak binding; strength is not graded here. Tags and fused reporters may be left off the sequences shown.
Target: RAB5 (human (endogenous in T-REx-293))
Experiment: co-IP; mitochondria-enriched fractions of T-REx-293 cells expressing GLUT10/V5; IP with anti-RAB5 antibodies against control IgG; immunoblot for V5, RAB5 and TIM50

- binding: binds
B1: GLUT10/V5 (glucose transporter 10, V5-tagged) (protein, UniProt Q8VHD6 1-536)
chain: MGLRPAVLLLCASVSLLGGLTFGYELAVISGALLPLQLNFGLSCLEQELLVGSLLLGALLASLVGGFLIDCYGRRRAILGSNAVLLAGSLILGLASSLPWLLLGRLSVGFAISLSSMACCIYVSELVGPRQRGVLVSLYEVGITVGILFSYGLNYVLAGSPWGWRHMFGWAAAPALLQSLSLFLLPAGAEGTAAPKDLIPLQGRETSKPGLVKPQYSFLDLFRAQDGMWSRTVVGLGLVLFQQLTGQPNVLYYASTIFRSVGFHGGSSAVLASVGLGTVKVAATLVATGLVDRAGRRVLLLFGCALMALSVSGIGLVSFAVSLDSGPSCLATSNASQQVDLPGSSGLLVRSSLPPVLHTNGDQGQLVLSVTERPIHPVITASLGPVLNTASPVPTSPILEHTLLCWSALVCMMVYVSAFSVGFGPVTWLVLSEIYPAEIRGRAFAFCSSFNWAANLFISLSFLDLIGAIGLAWTFLLYGLTAVLGLAFIYLLVPETKGQSLAEIEQQFQTSRFPLNFGHRQRIGIQYHRLDVSSAS

Source: publication PMC13196150
